Source: PubChem BioAssay AID1508588 (Peter MacCallum Cancer Centre, 2020)
The whole screen tested about 18,000 reagents; below is an unselected part. 790 of all reagents (4.4%) count as active. 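Calls rest on a combination of fold-change classes in drug and vehicle arms, not all shown here.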 Some reagents were tested in more than one well and are listed for each.

Screen: 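Genome-wide search for knock-downs that heighten vemurafenib action in melanoma cells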 (primary screen)
System: human WM266.4 melanoma cells (BRAF V600 mutant)
Reagent: siRNA pool against human genes, 40 nM
Time to read-out: 96 h from transfection to read-out
Conditions: vemurafenib 300 nM (about IC25), added 48 h after transfection, for 48 h; comparison arm got DMSO vehicle only
Read-out: 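Ratios to non-targeting siRNA for cell gain, counted as DAPI nuclei after minus before drug and averaged over two replicates, and for absorbance-read medium lactate per cell; both binned into fold-change classes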
Reading the numbers: cell gain with vemurafenib: higher = more cell gain than with non-targeting siRNA; lactate per cell with vemurafenib: higher = more lactate made per cell
Rule for the call: 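a knock-down counts as enhancing when its fold-change classes with vehicle and with vemurafenib, taken together, show a stronger drug effect on cell gain or lactate per cell; exact class pairs not stated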
Calls: active = enhances vemurafenib effect; inactive = no enhancement seen

Against ITFG2, the entry reads cell gain with vemurafenib 0.66; lactate per cell with vemurafenib 0.89; inactive.
Knock-down of KCNMA1 gave: cell gain with vemurafenib 0.44; lactate per cell with vemurafenib 0.4; inactive.
Depletion of KPNA2 resulted in: cell gain with vemurafenib 0.98; lactate per cell with vemurafenib 0.64; active.
Silencing of POLR2B came out at: cell gain with vemurafenib 0.09; lactate per cell with vemurafenib 0.87; inactive.
GRM7 scored cell gain with vemurafenib 0.91; lactate per cell with vemurafenib 0.74; inactive.
GRM7 scored cell gain with vemurafenib 1.19; lactate per cell with vemurafenib 0.81; inactive.
Knock-down of TMEM208 resulted in: cell gain with vemurafenib 0.69; lactate per cell with vemurafenib 1.38; inactive.
Knock-down of KRTAP2-4 resulted in: cell gain with vemurafenib 0.67; lactate per cell with vemurafenib 0.46; active.
Silencing of CLTB came out at: cell gain with vemurafenib -0.16; lactate per cell with vemurafenib 3.54; inactive.
SNTG1 gave cell gain with vemurafenib 0.15; lactate per cell with vemurafenib 0.45; active.
ZNF627 scored cell gain with vemurafenib 0.85; lactate per cell with vemurafenib 1.11; inactive.
Knock-down of B3GNT6 gave: cell gain with vemurafenib 0.46; lactate per cell with vemurafenib 0.71; inactive.
Depletion of ASPM resulted in: cell gain with vemurafenib 0.76; lactate per cell with vemurafenib 0.84; inactive.
FAM177B scored cell gain with vemurafenib 0.21; lactate per cell with vemurafenib 1.36; inactive.
After knock-down of GAGE6 the results were cell gain with vemurafenib 0.37; lactate per cell with vemurafenib 0.53; inactive.
Knock-down of APLNR came out at: cell gain with vemurafenib 0.61; lactate per cell with vemurafenib 0.88; inactive.
Silencing of CT47A3 gave: cell gain with vemurafenib 0.91; lactate per cell with vemurafenib 0.46; inactive.
After knock-down of GBGT1 the results were cell gain with vemurafenib 0.66; lactate per cell with vemurafenib 0.82; inactive.
With knock-down of HIPK1, the screen gave cell gain with vemurafenib 0.59; lactate per cell with vemurafenib 2.21; inactive.
Against ARMC3, the values are cell gain with vemurafenib 1.08; lactate per cell with vemurafenib 0.83; inactive.
With knock-down of TRUB2, the record shows cell gain with vemurafenib 0.73; lactate per cell with vemurafenib 0.31; inactive.
For GAPDHS the deposit lists cell gain with vemurafenib 0.12; lactate per cell with vemurafenib 0.67; inactive.
Depletion of GNL3 gave: cell gain with vemurafenib 0.35; lactate per cell with vemurafenib 0.9; inactive.
After knock-down of TADA1, the record shows cell gain with vemurafenib 0.8; lactate per cell with vemurafenib 0.99; inactive.
OR13C8 gave cell gain with vemurafenib 0.06; lactate per cell with vemurafenib 1.49; inactive.
For GMPPB, the values are cell gain with vemurafenib 0.6; lactate per cell with vemurafenib 0.98; inactive.
With knock-down of UBTD2, the screen gave cell gain with vemurafenib 0.36; lactate per cell with vemurafenib 1.13; inactive.
With knock-down of KRT86, the record shows cell gain with vemurafenib 0.97; lactate per cell with vemurafenib 0.94; inactive.
After knock-down of MIIP, the record shows cell gain with vemurafenib 0.58; lactate per cell with vemurafenib 0.77; inactive.
Silencing of IDE gave: cell gain with vemurafenib 0.75; lactate per cell with vemurafenib 0.54; inactive.
Depletion of MCL1 came out at: cell gain with vemurafenib 0.94; lactate per cell with vemurafenib 0.34; inactive.
Against KRTAP17-1 the deposit lists cell gain with vemurafenib 1.02; lactate per cell with vemurafenib 0.73; inactive.
With knock-down of EARS2 the results were cell gain with vemurafenib 0.04; lactate per cell with vemurafenib 1.17; inactive.
PRH1 scored cell gain with vemurafenib 0.69; lactate per cell with vemurafenib 1.72; inactive.
SEZ6 scored cell gain with vemurafenib 0.78; lactate per cell with vemurafenib 1.4; inactive.
Against ZNF833P, the values are cell gain with vemurafenib 0.69; lactate per cell with vemurafenib 0.58; inactive.
With knock-down of CD300LF, the screen gave cell gain with vemurafenib 0.51; lactate per cell with vemurafenib 0.85; inactive.
After knock-down of RHBDD3, the screen gave cell gain with vemurafenib 0.08; lactate per cell with vemurafenib 0.79; inactive.
With knock-down of ANGPTL2 the results were cell gain with vemurafenib 0.6; lactate per cell with vemurafenib 1.34; inactive.
With knock-down of OXNAD1 the results were cell gain with vemurafenib 1.35; lactate per cell with vemurafenib 0.94; inactive.

3 entries from above, set out differently.
{"target gene":"ITFG2","cell gain with vemurafenib":0.66,"lactate per cell with vemurafenib":0.89,"outcome":"inactive"}
{"target gene":"KCNMA1","cell gain with vemurafenib":0.44,"lactate per cell with vemurafenib":0.4,"outcome":"inactive"}
{"target gene":"KPNA2","cell gain with vemurafenib":0.98,"lactate per cell with vemurafenib":0.64,"outcome":"active"}
